Experimental data reported in article PMC9376112, “XPC–PARP complexes engage the chromatin remodeler ALC1 to catalyze global genome DNA damage repair” (Nature Communications, 2022).
Results are given in words; binding and its absence hold for the method and conditions named. Binding seen in cells or lysates may run through a third protein. Here binding means that the protein was enriched with, or labelled near, the bait; the list need not be complete. For some assays here: Where a sequence is shown, tags or fusion partners need not be part of it. Blank lines part the entries; values can stand above or below the molecule they belong to.

By UniProt entry, the sequences of proteins in these tests, tags left out. Where a name states a change or a piece, a line headed by the entry shows the natural chain unless it says otherwise. Chains listed by the source or under a name are the forms on record and can include a tag or linker.
UniProt Q9UGN5: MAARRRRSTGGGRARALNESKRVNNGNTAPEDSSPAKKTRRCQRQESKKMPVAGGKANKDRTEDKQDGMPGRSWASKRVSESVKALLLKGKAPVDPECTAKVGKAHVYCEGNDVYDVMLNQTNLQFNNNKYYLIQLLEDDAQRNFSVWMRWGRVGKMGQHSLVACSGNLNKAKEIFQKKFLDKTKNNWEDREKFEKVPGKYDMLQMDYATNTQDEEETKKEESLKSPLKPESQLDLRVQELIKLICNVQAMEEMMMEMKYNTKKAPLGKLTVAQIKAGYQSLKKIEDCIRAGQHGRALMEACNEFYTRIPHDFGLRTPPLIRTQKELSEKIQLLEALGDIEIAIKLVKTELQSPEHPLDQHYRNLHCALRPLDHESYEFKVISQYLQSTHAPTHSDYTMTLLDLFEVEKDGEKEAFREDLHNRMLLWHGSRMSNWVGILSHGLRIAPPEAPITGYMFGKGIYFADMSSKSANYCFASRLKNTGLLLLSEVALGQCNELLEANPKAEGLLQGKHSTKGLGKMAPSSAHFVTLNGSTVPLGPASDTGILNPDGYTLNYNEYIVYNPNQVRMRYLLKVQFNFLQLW
GFP-PARP2 (Q9UGN5-2, form named): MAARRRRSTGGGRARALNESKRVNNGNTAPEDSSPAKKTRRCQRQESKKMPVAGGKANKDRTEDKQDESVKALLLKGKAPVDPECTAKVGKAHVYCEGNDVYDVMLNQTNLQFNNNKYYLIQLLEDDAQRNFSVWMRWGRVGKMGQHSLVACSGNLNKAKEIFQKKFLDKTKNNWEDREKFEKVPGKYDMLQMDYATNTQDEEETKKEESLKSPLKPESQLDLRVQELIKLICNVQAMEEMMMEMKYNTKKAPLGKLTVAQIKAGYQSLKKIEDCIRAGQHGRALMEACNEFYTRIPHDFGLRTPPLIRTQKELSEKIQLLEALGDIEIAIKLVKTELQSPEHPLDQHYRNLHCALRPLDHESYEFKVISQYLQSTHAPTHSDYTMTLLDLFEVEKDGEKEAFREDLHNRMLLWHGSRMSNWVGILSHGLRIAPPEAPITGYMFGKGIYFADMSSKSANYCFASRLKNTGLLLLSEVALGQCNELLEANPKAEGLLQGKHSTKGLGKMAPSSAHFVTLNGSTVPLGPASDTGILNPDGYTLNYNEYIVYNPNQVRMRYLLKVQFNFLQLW
UniProt P09874: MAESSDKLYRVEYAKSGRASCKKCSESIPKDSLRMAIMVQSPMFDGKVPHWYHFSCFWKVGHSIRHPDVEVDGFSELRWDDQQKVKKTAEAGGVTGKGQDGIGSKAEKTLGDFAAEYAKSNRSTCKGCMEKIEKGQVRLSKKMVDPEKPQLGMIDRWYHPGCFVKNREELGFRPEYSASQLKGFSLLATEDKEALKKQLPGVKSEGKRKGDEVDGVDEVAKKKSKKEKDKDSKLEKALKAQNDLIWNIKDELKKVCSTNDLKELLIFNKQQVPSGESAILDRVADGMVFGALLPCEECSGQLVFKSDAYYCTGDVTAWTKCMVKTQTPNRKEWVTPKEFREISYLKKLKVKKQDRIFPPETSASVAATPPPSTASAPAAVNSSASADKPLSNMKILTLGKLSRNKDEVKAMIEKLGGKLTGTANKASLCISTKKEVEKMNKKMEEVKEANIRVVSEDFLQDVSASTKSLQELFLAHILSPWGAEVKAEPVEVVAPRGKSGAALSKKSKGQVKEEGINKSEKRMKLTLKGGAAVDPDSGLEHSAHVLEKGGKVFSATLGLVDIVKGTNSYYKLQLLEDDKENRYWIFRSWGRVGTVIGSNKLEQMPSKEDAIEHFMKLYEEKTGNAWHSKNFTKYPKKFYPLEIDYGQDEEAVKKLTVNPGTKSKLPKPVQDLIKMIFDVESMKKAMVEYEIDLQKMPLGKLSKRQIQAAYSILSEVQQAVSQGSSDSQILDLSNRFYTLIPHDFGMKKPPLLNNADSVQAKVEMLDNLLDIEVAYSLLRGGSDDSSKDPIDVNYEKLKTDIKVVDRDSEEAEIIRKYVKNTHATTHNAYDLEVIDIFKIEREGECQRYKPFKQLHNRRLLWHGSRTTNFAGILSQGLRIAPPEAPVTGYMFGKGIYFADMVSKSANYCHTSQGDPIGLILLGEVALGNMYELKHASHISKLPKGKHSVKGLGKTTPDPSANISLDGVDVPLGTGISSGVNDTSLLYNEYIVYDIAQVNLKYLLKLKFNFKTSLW
UniProt Q86WJ1: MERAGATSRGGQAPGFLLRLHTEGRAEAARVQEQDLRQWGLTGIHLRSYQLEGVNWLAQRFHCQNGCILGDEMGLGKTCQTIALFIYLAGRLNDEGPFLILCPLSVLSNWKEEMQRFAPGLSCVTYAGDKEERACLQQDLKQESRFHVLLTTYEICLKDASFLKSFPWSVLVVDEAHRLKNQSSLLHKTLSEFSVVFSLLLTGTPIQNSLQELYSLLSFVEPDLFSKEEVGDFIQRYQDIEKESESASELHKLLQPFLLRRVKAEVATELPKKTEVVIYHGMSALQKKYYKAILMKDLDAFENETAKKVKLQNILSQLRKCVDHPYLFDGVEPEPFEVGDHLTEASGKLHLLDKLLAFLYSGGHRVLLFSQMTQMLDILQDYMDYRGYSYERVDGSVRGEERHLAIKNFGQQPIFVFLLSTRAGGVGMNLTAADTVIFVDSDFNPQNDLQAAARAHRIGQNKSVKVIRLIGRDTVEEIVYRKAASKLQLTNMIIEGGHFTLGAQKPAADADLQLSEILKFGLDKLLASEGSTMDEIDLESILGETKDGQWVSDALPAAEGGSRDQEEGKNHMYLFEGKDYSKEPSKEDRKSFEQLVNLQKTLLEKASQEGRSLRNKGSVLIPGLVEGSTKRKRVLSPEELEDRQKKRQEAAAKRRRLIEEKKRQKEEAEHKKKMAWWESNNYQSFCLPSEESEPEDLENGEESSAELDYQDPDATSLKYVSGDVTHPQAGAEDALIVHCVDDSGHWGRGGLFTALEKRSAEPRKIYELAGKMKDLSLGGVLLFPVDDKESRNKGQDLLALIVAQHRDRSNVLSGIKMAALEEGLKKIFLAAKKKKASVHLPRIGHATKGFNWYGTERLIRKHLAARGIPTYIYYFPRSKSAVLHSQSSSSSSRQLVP
UniProt Q13620: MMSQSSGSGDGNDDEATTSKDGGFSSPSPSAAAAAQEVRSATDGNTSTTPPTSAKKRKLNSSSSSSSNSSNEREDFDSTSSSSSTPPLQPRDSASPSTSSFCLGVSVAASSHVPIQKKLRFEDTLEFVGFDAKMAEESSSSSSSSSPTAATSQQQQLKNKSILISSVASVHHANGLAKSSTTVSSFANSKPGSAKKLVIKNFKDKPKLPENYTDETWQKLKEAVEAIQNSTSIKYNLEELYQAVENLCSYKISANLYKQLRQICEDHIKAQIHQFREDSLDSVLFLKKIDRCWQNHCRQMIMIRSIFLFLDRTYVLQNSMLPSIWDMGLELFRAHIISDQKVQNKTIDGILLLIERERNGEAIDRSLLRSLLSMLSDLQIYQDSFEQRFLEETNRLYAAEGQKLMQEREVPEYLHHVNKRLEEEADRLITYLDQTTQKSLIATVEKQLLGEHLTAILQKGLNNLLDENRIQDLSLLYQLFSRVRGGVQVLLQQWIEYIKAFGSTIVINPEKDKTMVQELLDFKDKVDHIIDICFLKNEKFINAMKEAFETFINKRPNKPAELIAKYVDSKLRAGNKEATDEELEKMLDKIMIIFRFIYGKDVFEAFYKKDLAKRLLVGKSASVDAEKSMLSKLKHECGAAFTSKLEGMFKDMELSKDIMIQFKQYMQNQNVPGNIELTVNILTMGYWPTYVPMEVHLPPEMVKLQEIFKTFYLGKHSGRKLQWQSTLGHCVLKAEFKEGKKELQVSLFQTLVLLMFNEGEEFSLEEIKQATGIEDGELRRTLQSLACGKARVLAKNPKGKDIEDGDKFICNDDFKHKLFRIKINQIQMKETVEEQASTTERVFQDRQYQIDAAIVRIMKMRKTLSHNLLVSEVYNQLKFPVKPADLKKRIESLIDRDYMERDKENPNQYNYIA
UniProt Q9Y5B9: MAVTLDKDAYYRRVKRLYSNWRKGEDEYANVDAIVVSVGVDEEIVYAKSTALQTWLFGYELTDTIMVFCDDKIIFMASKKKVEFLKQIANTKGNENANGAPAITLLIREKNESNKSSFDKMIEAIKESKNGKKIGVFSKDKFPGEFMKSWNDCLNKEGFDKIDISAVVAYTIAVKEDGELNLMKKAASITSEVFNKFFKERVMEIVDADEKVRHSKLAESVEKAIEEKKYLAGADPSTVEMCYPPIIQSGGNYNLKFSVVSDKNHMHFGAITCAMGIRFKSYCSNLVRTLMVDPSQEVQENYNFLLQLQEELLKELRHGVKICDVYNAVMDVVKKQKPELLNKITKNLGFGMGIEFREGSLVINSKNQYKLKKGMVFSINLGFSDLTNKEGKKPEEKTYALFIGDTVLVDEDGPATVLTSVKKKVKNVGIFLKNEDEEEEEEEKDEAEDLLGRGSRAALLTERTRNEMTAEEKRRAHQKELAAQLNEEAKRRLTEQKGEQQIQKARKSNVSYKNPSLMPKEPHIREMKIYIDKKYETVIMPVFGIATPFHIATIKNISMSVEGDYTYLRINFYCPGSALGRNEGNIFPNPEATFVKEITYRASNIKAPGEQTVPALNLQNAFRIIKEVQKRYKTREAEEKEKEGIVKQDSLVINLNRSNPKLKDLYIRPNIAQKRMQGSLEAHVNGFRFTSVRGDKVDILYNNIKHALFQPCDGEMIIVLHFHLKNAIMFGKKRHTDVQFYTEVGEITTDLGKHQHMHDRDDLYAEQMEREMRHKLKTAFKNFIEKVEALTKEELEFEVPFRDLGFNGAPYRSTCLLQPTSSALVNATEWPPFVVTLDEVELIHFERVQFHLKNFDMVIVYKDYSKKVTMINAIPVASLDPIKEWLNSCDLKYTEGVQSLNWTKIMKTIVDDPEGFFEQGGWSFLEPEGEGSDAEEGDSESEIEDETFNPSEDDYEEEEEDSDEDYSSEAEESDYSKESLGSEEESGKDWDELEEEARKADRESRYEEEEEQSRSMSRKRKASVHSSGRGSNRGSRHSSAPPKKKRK
UniProt Q13619: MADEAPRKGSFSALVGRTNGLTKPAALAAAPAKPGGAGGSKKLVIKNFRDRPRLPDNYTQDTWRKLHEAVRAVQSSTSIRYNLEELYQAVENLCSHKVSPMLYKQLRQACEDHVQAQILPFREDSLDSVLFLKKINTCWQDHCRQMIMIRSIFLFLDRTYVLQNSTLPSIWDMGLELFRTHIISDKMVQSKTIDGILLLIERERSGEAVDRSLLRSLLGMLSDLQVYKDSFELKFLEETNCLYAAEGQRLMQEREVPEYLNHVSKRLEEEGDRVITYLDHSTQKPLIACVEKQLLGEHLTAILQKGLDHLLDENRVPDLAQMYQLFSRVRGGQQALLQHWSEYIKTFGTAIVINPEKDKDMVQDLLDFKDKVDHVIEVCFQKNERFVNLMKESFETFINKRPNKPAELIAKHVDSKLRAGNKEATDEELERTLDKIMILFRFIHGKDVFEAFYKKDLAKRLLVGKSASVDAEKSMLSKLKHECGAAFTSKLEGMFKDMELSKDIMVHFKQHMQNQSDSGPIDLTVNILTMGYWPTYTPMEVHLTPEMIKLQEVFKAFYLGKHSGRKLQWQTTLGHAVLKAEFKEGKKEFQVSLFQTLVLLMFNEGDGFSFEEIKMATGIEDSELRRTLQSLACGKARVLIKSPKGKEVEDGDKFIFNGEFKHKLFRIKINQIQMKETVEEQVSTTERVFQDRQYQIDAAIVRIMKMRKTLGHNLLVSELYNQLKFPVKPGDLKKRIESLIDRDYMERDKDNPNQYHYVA
UniProt Q92466: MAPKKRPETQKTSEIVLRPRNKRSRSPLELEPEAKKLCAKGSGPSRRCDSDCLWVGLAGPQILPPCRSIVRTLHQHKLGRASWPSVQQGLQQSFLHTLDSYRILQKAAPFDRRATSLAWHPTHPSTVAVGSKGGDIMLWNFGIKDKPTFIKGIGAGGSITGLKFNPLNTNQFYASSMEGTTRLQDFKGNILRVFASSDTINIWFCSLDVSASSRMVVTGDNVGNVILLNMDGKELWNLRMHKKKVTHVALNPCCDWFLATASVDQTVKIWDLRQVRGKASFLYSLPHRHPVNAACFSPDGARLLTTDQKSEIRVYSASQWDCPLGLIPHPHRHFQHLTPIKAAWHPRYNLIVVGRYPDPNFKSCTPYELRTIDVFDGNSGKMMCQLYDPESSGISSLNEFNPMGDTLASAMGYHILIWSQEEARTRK
UniProt P54725: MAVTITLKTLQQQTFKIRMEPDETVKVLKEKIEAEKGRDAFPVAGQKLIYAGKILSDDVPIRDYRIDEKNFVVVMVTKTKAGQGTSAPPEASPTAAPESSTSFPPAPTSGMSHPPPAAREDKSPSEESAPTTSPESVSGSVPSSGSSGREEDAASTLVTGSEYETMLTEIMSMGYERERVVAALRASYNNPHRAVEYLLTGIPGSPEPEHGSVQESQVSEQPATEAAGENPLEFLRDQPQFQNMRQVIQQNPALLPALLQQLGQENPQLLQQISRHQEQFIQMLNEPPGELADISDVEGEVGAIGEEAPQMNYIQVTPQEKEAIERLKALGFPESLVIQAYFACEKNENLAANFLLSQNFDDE

Experiments:
GFP-PARP2 = molecular target: T1, GFP-PARP2 (UniProt Q9UGN5-2 1-570); assay: affinity purification with mass spectrometry; GFP pull-down of PARP1-GFP or GFP-PARP2 from U2OS (FRT) WT cells, label-free proteomics with iBAQ quantification; cells unirradiated or UV-C-irradiated (20 J/m^2, 1 h)
T1 construct: also called PARP2-GFP; source: U2OS (FRT) WT, stably expressed (Flp-In, doxycycline-inducible), in lysate; not shown: GFP, N-terminal, kept

PARP1-GFP = molecular target: T2, PARP1-GFP (UniProt P09874 1-1014); assay: as above
T2 construct: source: U2OS (FRT) WT, stably expressed (Flp-In, doxycycline-inducible), in lysate; not shown: GFP, C-terminal, kept

XPC-GFP = molecular target: T3, XPC-GFP (UniProt Q01831); assay: affinity purification with mass spectrometry; GFP pull-down (GFP-Trap beads) of XPC-GFP over GFP-NLS from U2OS (FRT) XPC-KO cells, label-free proteomics; cells unirradiated or UV-C-irradiated (20 J/m^2, 1 h)
T3 sequence: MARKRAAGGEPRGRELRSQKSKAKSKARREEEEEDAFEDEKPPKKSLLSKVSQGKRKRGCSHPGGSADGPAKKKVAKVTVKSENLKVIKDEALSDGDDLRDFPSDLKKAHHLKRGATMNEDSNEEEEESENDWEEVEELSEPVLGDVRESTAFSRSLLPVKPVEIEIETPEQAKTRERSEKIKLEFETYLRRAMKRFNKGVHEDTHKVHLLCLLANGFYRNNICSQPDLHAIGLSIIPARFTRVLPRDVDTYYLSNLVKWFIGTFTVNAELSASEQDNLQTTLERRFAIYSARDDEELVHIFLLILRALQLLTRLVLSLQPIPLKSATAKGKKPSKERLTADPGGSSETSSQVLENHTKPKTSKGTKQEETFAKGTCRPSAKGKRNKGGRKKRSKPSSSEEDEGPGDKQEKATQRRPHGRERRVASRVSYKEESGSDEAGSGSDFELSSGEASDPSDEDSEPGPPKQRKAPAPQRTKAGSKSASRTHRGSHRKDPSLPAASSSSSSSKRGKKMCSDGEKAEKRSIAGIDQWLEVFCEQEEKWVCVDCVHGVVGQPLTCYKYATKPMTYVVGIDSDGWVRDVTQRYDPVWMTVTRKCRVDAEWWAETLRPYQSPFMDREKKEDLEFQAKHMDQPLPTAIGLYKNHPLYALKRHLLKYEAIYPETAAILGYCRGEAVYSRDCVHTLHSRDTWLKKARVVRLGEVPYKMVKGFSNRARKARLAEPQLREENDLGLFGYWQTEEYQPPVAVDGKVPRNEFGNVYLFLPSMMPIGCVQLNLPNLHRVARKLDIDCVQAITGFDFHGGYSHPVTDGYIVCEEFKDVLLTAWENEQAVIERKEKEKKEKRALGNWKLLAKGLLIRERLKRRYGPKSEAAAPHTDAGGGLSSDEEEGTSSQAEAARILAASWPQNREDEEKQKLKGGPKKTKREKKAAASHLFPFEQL

GFP-ALC1 WT = GFP-ALC1 WT (UniProt Q86WJ1); assay: affinity purification with mass spectrometry; GFP pull-down of GFP-ALC1 WT or E175Q from U2OS (FRT) ALC1-KO cells, label-free proteomics
GFP-ALC1 E175Q = GFP-ALC1 E175Q (UniProt Q86WJ1); assay: as above

binding (XPC-GFP): binds
Molecule: CUL4B (from UniProt Q13620 1-913)

binding (XPC-GFP): binds
Molecule: DDB1 (from UniProt Q16531 1-1140)

binding (GFP-ALC1 WT): binds
Molecule: SPT16 (from UniProt Q9Y5B9 1-1047)

binding (XPC-GFP): binds
B2: CEN3 (protein, UniProt O15182 1-167)
chain: MSLALRSELVVDKTKRKKRRELSEEQKQEIKDAFELFDTDKDEAIDYHELKVAMRALGFDVKKADVLKILKDYDREATGKITFEDFNEVVTDWILERDPHEEILKAFKLFDDDDSGKISLRNLRRVARELGENMSDEELRAMIEEFDKDGDGEINQEEFIAIMTGDI

The next lines start with the molecule.

Molecule: ALC1 (endogenous) (from UniProt Q86WJ1 1-897) (enzyme)
binding (GFP-PARP2): binds
binding (PARP1-GFP): binds

Molecule: CUL4A (from UniProt Q13619 1-759)
binding (XPC-GFP): binds

Molecule: DDB2 (from UniProt Q92466 1-427)
binding (XPC-GFP): binds

Molecule: PARP1 (endogenous) (from UniProt P09874 1-1014) (enzyme)
binding (GFP-ALC1 WT): binds
binding (XPC-GFP): binds
binding (GFP-PARP2): binds

Molecule: PARP2 (endogenous) (from UniProt Q9UGN5 1-583) (enzyme)
binding (GFP-ALC1 WT): binds
binding (GFP-ALC1 E175Q): binds
binding (XPC-GFP): binds
binding (PARP1-GFP): binds

Molecule: RAD23A (from UniProt P54725 1-363)
binding (XPC-GFP): binds

B1: XPC (endogenous) (natural protein, human (endogenous in U2OS), UniProt Q01831 1-940, looked up)
chain: MARKRAAGGEPRGRELRSQKSKAKSKARREEEEEDAFEDEKPPKKSLLSKVSQGKRKRGCSHPGGSADGPAKKKVAKVTVKSENLKVIKDEALSDGDDLRDFPSDLKKAHHLKRGATMNEDSNEEEEESENDWEEVEELSEPVLGDVRESTAFSRSLLPVKPVEIEIETPEQAKTRERSEKIKLEFETYLRRAMKRFNKGVHEDTHKVHLLCLLANGFYRNNICSQPDLHAIGLSIIPARFTRVLPRDVDTYYLSNLVKWFIGTFTVNAELSASEQDNLQTTLERRFAIYSARDDEELVHIFLLILRALQLLTRLVLSLQPIPLKSATAKGKKPSKERLTADPGGSSETSSQVLENHTKPKTSKGTKQEETFAKGTCRPSAKGKRNKGGRKKRSKPSSSEEDEGPGDKQEKATQRRPHGRERRVASRVSYKEESGSDEAGSGSDFELSSGEASDPSDEDSEPGPPKQRKAPAPQRTKAGSKSASRTHRGSHRKDPSLPAASSSSSSSKRGKKMCSDGEKAEKRSIAGIDQWLEVFCEQEEKWVCVDCVHGVVGQPLTCYKYATKPMTYVVGIDSDGWVRDVTQRYDPVWMTVTRKCRVDAEWWAETLRPYQSPFMDREKKEDLEFQAKHMDQPLPTAIGLYKNHPLYALKRHLLKYEAIYPETAAILGYCRGEAVYSRDCVHTLHSRDTWLKKARVVRLGEVPYKMVKGFSNRARKARLAEPQLREENDLGLFGYWQTEEYQPPVAVDGKVPRNEFGNVYLFLPSMMPIGCVQLNLPNLHRVARKLDIDCVQAITGFDFHGGYSHPVTDGYIVCEEFKDVLLTAWENEQAVIERKEKEKKEKRALGNWKLLAKGLLIRERLKRRYGPKSEAAAPHTDAGGGLSSDEEEGTSSQAEAARILAASWPQNREDEEKQKLKGGPKKTKREKKAAASHLFPFEQL
notes: XPC, endogenous in U2OS cells; source: endogenous, U2OS (FRT) WT lysate
binding (GFP-PARP2): binds
